No constants are given. Whether binding was seen depends on the method and setting. Binding seen in cells or lysates may run through a third protein. Some results given as binding are weak or reduced against the parent protein; the word gives no strength. Tags and fused reporters may be left off the sequences shown.

From article PMC8184781, “A histone H3K4me1-specific binding protein is required for siRNA accumulation and DNA methylation at a subset of loci targeted by RNA-directed DNA methylation” (Nature Communications, 2021) come the findings set out here.

The target of assay [1] is T1, RDM15 fused to a luciferase half (split luciferase construct) (Arabidopsis thaliana) (UniProt Q8GUP3).
T1 sequence: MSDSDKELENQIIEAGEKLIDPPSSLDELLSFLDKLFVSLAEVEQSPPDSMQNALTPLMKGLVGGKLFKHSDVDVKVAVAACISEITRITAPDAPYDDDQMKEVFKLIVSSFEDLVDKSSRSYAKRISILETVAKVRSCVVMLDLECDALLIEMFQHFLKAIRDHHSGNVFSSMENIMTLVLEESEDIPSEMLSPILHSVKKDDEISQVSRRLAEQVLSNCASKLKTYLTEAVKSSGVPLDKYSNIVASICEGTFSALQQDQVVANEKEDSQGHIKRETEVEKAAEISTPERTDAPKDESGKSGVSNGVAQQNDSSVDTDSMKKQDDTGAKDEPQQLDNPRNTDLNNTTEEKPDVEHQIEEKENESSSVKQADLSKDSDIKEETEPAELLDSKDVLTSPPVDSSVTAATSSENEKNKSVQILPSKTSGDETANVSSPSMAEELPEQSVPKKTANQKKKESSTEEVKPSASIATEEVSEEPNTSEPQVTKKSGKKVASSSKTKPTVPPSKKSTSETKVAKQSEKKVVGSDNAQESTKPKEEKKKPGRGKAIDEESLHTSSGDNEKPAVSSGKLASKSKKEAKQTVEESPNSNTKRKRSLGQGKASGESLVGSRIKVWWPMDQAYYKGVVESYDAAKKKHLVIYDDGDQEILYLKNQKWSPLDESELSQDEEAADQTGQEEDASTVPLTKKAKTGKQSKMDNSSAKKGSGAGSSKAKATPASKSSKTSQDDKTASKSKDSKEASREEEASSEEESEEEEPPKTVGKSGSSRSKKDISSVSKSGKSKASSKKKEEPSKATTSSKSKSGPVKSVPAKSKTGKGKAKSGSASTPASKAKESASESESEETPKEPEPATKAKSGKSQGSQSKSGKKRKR
Briefly: split reporter; split luciferase complementation in N. benthamiana leaves, 2 days after infiltration; performed once.

In assay [2] the target is T2, RDM15-cYFP / RDM15-nYFP (BiFC constructs) (Arabidopsis thaliana) (UniProt Q8GUP3).
T2 sequence: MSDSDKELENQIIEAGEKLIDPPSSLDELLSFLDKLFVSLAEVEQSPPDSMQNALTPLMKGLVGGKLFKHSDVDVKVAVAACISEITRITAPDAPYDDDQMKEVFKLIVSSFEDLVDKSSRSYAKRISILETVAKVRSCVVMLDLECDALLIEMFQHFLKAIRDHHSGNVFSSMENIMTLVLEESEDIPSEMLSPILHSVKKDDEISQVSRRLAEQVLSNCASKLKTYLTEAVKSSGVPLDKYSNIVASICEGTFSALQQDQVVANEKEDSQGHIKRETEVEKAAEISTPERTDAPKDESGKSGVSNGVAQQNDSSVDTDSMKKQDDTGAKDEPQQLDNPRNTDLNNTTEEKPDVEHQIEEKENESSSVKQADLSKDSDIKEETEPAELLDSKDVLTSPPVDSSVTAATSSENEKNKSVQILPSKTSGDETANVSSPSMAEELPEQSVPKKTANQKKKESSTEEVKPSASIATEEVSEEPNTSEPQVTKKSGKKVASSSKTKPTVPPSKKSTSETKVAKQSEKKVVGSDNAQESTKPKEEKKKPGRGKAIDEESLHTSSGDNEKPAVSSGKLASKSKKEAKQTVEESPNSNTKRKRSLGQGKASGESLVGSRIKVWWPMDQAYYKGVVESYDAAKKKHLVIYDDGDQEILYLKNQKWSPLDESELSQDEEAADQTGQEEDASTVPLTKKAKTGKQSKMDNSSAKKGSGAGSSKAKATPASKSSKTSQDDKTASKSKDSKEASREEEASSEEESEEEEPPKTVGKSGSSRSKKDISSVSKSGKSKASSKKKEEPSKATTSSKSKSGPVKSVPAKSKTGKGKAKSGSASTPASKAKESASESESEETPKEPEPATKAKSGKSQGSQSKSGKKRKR
The assay can be described thus: split reporter; BiFC (split YFP) in N. benthamiana leaves, 2 d after infiltration, Leica TCS-SP8; performed once.

B1: NRPE3B fused to a luciferase half (split luciferase construct) (protein, UniProt Q39212 1-319)
chain: MDGVTYQRFPTVKIRELKDDYAKFELRETDVSMANALRRVMISEVPTMAIHLVKIEVNSSVLNDEFIAQRLSLIPLTSERAMSMRFCQDCEDCNGDEHCEFCSVEFPLSAKCVTDQTLDVTSRDLYSADPTVTPVDFTSNSSTSDSSEHKGIIIAKLRRGQELKLKALARKGIGKDHAKWSPAATVTYMYEPDIIINEEMMNTLTDEEKIDLIESSPTKVFGIDPVTGQVVVVDPEAYTYDEEVIKKAEAMGKPGLIEIHPKHDSFVFTVESTGALKASQLVLNAIDILKQKLDAIRLSDNTVEADDQFGELGAHMREG
B1: the binding result in assay [1] is given as “binds”.

B2: NRPE3B-nYFP / NRPE3B-cYFP (BiFC constructs) (protein, UniProt Q39212 1-319)
chain: MDGVTYQRFPTVKIRELKDDYAKFELRETDVSMANALRRVMISEVPTMAIHLVKIEVNSSVLNDEFIAQRLSLIPLTSERAMSMRFCQDCEDCNGDEHCEFCSVEFPLSAKCVTDQTLDVTSRDLYSADPTVTPVDFTSNSSTSDSSEHKGIIIAKLRRGQELKLKALARKGIGKDHAKWSPAATVTYMYEPDIIINEEMMNTLTDEEKIDLIESSPTKVFGIDPVTGQVVVVDPEAYTYDEEVIKKAEAMGKPGLIEIHPKHDSFVFTVESTGALKASQLVLNAIDILKQKLDAIRLSDNTVEADDQFGELGAHMREG
Consider B2, for which the binding result in assay [2] is given as “binds”.
